Assay results: article PMC7356589, “Hybrid Gold(I) NHC-Artemether Complexes to Target Falciparum Malaria Parasites” (Molecules, 2020)

system: Vero cell line; test: Cytotoxicity on Vero cells (MTT); type: cell-based, monkey; settings: cytotoxic/antiplasmodial activity ratio
Description: The cells were cultured in MEM medium (Dutscher, Brumath, France) supplemented with 10% fetal bovine serum (Dutscher), 0.7 mM glutamine and 100 μg/mL gentamicin. The cells were seeded at 10^4 cells per well in a 96-well plates and incubated during 24 h. Then, cells were incubated for additional 48 h with the drugs. […] Subsequently, DMSO was added to the wells containing the cells and MTT to dissolve the formed crystals. The plates were then read to determine the absorbance at wavelength of 540 nm (µQuant, BioTek, Illkirch, France). Cell proliferation was calculated from at least three independent experiments using GraphPad Prism software 7 (GraphPad Software, San Diego, CA, USA). The cytotoxic/antiplasmodial activity ratio corresponds to the selectivity index.

In order of falling “Selectivity Index Vero Cells/P. falciparum” value:
1. C[C@@H]1CCC2[C@@H](C)[C@@H](OCCCn3cc[n+](C)[c]3[Au-][c]3n(CCCO[C@H]4O[C@@H]5O[C@@]6(C)CCC7[C@H](C)CCC([C@H]4C)[C@]75OO6)cc[n+]3C)O[C@@H]3O[C@@]4(C)CCC1[C@@]23OO4.O=[N+]([O-])[O-] (some centres unmarked) [Aubis(3-Me)]  143
2. C[C@@H]1CCC2[C@@H](C)[C@@H](OCCCCCn3cc[n+](C)[c]3[Au-][c]3n(CCCCCO[C@H]4O[C@@H]5O[C@@]6(C)CCC7[C@H](C)CCC([C@H]4C)[C@]75OO6)cc[n+]3C)O[C@@H]3O[C@@]4(C)CCC1[C@@]23OO4.[Cl-] (some centres unmarked) [Aubis(5-Me)]  111
3. C[C@@H]1CCC2[C@@H](C)[C@@H](OCCCCn3cc[n+](C)[c]3[Au-][c]3n(CCCCO[C@H]4O[C@@H]5O[C@@]6(C)CCC7[C@H](C)CCC([C@H]4C)[C@]75OO6)cc[n+]3C)O[C@@H]3O[C@@]4(C)CCC1[C@@]23OO4.[Cl-] (some centres unmarked) [Aubis(4-Me)]  62
4. CC(C)[n+]1ccn(CCCO[C@H]2O[C@@H]3O[C@@]4(C)CCC5[C@H](C)CCC([C@H]2C)[C@]53OO4)[c]1[Au-][c]1n(CCCO[C@H]2O[C@@H]3O[C@@]4(C)CCC5[C@H](C)CCC([C@H]2C)[C@]53OO4)cc[n+]1C(C)C.[Cl-] (some centres unmarked) [Aubis(3-iPr)]  54
5. C[C@@H]1CCC2[C@@H](C)[C@@H](OCCCCCn3cc[n+](-c4ccc5ccccc5n4)[c]3[Au-][c]3n(CCCCCO[C@H]4O[C@@H]5O[C@@]6(C)CCC7[C@H](C)CCC([C@H]4C)[C@]75OO6)cc[n+]3-c3ccc4ccccc4n3)O[C@@H]3O[C@@]4(C)CCC1[C@@]23OO4.[Cl-] (some centres unmarked) [Aubis(5-Quin)]  53
6. C[C@@H]1CCC2[C@@H](C)[C@@H](OCCCn3cc[n+](-c4ccc5ccccc5n4)[c]3[Au-][c]3n(CCCO[C@H]4O[C@@H]5O[C@@]6(C)CCC7[C@H](C)CCC([C@H]4C)[C@]75OO6)cc[n+]3-c3ccc4ccccc4n3)O[C@@H]3O[C@@]4(C)CCC1[C@@]23OO4.[Cl-] (some centres unmarked) [Aubis(3-Quin)]  52
7. C[C@@H]1CCC2[C@@H](C)[C@@H](OCCCCn3cc[n+](Cc4ccccc4)[c]3[Au-][c]3n(CCCCO[C@H]4O[C@@H]5O[C@@]6(C)CCC7[C@H](C)CCC([C@H]4C)[C@]75OO6)cc[n+]3Cc3ccccc3)O[C@@H]3O[C@@]4(C)CCC1[C@@]23OO4.[Cl-] (some centres unmarked) [Aubis(4-Bn)]  18
8. Cc1cc(C)c(-[n+]2ccn(CCCCO[C@H]3O[C@@H]4O[C@@]5(C)CCC6[C@H](C)CCC([C@H]3C)[C@]64OO5)[c]2[Au-][c]2n(CCCCO[C@H]3O[C@@H]4O[C@@]5(C)CCC6[C@H](C)CCC([C@H]3C)[C@]64OO5)cc[n+]2-c2c(C)cc(C)cc2C)c(C)c1.[Cl-] (some centres unmarked) [Aubis(4-Mes)]  18
9. C[C@@H]1CCC2[C@@H](C)[C@@H](OCCCn3cc[n+](Cc4ccccc4)[c]3[Au-][c]3n(CCCO[C@H]4O[C@@H]5O[C@@]6(C)CCC7[C@H](C)CCC([C@H]4C)[C@]75OO6)cc[n+]3Cc3ccccc3)O[C@@H]3O[C@@]4(C)CCC1[C@@]23OO4.[Cl-] (some centres unmarked) [Aubis(3-Bn)]  14
10. Cc1cc(C)c(-[n+]2ccn(CCCO[C@H]3O[C@@H]4O[C@@]5(C)CCC6[C@H](C)CCC([C@H]3C)[C@]64OO5)[c]2[Au-][c]2n(CCCO[C@H]3O[C@@H]4O[C@@]5(C)CCC6[C@H](C)CCC([C@H]3C)[C@]64OO5)cc[n+]2-c2c(C)cc(C)cc2C)c(C)c1.[Cl-] (some centres unmarked) [Aubis(3-Mes)]  8
11. C[C@@H]1CCC2[C@@H](C)[C@@H](OCCCCCn3cc[n+](Cc4ccccc4)[c]3[Au-][c]3n(CCCCCO[C@H]4O[C@@H]5O[C@@]6(C)CCC7[C@H](C)CCC([C@H]4C)[C@]75OO6)cc[n+]3Cc3ccccc3)O[C@@H]3O[C@@]4(C)CCC1[C@@]23OO4.[Cl-] (some centres unmarked) [Aubis(5-Bn)]  8
